Measurements taken from publication PMC9985628.
No constants are given. Whether binding was seen depends on the method and setting. Binding seen in cells or lysates may run through a third protein. Some results given as binding are weak or reduced against the parent protein; the word gives no strength. For some assays here: Tags and fused reporters may be left off the sequences shown.

The chains behind the UniProt entries cited, without tags or fusion partners. Where a name states a change or a piece, a line headed by the entry shows the natural chain unless it says otherwise.
UniProt Q62844: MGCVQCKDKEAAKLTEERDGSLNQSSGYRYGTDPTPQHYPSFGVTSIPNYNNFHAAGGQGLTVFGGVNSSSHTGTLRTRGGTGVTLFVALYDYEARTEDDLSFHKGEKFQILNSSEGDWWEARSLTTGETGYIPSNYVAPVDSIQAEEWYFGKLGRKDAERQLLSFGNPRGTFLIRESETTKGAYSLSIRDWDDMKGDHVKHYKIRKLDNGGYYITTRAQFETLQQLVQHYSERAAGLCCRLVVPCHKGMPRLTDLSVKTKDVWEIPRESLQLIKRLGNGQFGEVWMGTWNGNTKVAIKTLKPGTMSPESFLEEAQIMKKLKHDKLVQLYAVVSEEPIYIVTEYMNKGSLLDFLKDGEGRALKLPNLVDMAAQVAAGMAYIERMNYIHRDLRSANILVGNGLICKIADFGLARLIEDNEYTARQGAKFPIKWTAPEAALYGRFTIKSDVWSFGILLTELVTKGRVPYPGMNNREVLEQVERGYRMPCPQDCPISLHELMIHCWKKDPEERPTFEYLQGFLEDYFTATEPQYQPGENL
UniProt P39688: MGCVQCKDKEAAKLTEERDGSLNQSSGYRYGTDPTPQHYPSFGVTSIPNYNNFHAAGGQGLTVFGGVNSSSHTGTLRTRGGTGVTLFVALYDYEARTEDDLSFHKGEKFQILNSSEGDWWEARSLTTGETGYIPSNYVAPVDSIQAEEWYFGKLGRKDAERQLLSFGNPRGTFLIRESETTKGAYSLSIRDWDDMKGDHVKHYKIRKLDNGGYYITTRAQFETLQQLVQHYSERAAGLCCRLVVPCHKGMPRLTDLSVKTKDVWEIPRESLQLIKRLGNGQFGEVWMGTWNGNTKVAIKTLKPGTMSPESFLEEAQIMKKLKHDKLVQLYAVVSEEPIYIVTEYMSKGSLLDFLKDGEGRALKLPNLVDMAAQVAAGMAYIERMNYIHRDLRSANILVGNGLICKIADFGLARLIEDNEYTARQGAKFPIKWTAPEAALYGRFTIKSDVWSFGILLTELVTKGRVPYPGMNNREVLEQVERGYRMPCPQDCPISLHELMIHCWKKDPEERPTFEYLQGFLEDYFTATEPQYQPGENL

B1: p22^phox (protein, UniProt Q62737 1-192)
chain: MGQIEWAMWANEQALASGLILITGGIVATAGRFTQWYFGAYSIVAGVLICLLEYPRGKRKKGSTMERCGQKYLTAVVKLFGPLTRNYYVRAVLHLLLSVPAGFLLATILGTVCLAIASVIYLLAAIRGEQWTPIEPKPKERPQVGGTIKQPPTNPPPRPPAEVRKKPSEAEEEAASAGGPQVNPIPVTDEVV

Experiments:
[1] = target: T1, NADPH oxidase 4 (rat (endogenous in NRCMs)) (UniProt Q924V1); test: co-IP; competition: NRCMs transduced with Ad-FYN(1-80), with FGF18 overexpression; lysates in IGEPAL CA-630 buffer, immunoblot
T1 sequence: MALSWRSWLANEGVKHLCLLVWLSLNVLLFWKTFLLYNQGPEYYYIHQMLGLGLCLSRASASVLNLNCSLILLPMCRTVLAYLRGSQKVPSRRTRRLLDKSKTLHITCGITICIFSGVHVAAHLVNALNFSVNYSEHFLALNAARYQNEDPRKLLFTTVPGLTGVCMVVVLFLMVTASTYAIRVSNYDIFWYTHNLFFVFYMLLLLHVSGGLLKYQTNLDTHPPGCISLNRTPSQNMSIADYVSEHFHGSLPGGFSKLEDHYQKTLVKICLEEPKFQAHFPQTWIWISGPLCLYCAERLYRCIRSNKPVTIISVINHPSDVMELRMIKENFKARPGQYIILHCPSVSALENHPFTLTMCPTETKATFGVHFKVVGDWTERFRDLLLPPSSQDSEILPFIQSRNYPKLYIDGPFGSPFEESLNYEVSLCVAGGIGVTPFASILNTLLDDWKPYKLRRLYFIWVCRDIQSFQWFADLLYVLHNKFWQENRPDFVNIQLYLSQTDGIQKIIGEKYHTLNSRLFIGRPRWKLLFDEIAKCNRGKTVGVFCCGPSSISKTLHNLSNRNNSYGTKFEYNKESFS

[2] = target: T1, NADPH oxidase 4 (rat (endogenous in NRCMs)); test: co-IP; NRCM lysates in IGEPAL CA-630 buffer (50 mM Tris-HCl pH 7.4, 1% IGEPAL CA-630, 10 mM EDTA, 150 mM NaCl, 50 mM NaF), primary antibody 2 h, Protein A/G magnetic beads, 4 °C, immunoblot; cells treated with FGF18 (50 ng/ml, 10 min), ISO, Ad-FGF18 or Ad-NOX4; IgG isotype as negative control
[3] = target: T2, NADPH oxidase 4 (mouse heart) (mouse (endogenous in heart tissue)) (UniProt Q9JHI8); test: co-IP; competition: hearts of mice given AAV9-cTnT-FGF18 and AAV9-cTnT-FYN(1-80), Sham or TAC; tissue lysates in IGEPAL CA-630 buffer, immunoblot
T2 sequence: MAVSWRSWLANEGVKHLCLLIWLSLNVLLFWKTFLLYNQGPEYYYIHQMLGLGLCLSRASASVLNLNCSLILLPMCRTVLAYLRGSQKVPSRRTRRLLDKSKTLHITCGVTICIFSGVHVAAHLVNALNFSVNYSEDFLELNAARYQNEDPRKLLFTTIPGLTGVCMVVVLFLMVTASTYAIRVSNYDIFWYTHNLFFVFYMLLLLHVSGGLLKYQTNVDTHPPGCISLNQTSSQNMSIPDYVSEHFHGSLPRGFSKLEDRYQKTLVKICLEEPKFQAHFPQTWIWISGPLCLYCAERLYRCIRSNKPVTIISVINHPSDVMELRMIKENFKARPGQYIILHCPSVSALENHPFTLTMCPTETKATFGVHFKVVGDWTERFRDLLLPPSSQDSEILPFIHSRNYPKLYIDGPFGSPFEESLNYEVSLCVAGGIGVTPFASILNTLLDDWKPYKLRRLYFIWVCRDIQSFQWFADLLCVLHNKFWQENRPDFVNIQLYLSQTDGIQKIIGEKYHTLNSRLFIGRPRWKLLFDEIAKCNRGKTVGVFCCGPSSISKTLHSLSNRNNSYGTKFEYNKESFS

[4] = target: T2, NADPH oxidase 4 (mouse heart) (mouse (endogenous in heart tissue)); test: co-IP; mouse heart tissue lysates in IGEPAL CA-630 buffer, Protein A/G magnetic beads, immunoblot; Sham or TAC, AAV9-cTnT-FGF18 or control
[5] = target: T3, NOX4 overexpressed from adenovirus (Ad-NOX4) (rat) (UniProt Q924V1); test: co-IP; NRCM lysates in IGEPAL CA-630 buffer (50 mM Tris-HCl pH 7.4, 1% IGEPAL CA-630, 10 mM EDTA, 150 mM NaCl, 50 mM NaF), primary antibody 2 h, Protein A/G magnetic beads, 4 °C, immunoblot; cells treated with FGF18 (50 ng/ml, 10 min), ISO, Ad-FGF18 or Ad-NOX4; IgG isotype as negative control
T3 sequence: T1 sequence

[6] = target: T1, NADPH oxidase 4 (rat (endogenous in NRCMs)); test: as above; remark: listed apart in the source

binding [1] | binding [3] | also measured | Molecule
binds | – | binding [2]: binds | Tyrosine-protein kinase FYN (from UniProt Q62844 1-537) (enzyme)
binds | – | – | rat FYN_(1-80) (from UniProt Q62844 1-80) (domain or fragment)
– | binds | – | murine FYN_(1-80) (from UniProt P39688 1-80) (domain or fragment)
– | binds | binding [4]: binds | Tyrosine-protein kinase FYN (mouse heart) (from UniProt P39688 1-537) (enzyme)
– | – | binding [5]: binds; binding [6]: binds | B1
